# Experimental data from PubChem BioAssay (EPA / NIEHS).
# Sequences of proteins named here, by UniProt entry; tags and fusion partners are left off. A change or cut given only in a name is not applied to a line headed by its entry.
# UniProt P41235: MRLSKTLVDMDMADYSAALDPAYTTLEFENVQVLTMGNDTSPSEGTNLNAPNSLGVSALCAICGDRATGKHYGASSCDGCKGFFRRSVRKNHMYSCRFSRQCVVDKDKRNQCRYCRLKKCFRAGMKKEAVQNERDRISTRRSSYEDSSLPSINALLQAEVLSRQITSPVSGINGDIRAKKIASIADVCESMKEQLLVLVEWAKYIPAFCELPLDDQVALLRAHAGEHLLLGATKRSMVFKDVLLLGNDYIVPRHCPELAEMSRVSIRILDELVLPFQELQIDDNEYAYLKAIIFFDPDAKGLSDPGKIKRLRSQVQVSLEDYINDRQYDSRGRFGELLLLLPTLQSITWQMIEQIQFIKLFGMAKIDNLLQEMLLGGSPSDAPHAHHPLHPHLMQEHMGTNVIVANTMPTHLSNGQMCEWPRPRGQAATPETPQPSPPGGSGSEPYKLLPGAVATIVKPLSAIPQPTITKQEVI
# Values joined by “and” are separate entries in the source; they are usually repeats but may differ in a detail not shown here. Equal values may be shown once. This list was built around the results that the source calls inconclusive (neither active nor inactive); the mix of calls is not that of the screen. Where the call is inconclusive, the potency comes from a doubtful curve fit. Active and inactive are the calls of the source. The calls were made as follows: active = hit-call score of the fitted dose curve at least 0.9, where 1 is the maximum; inconclusive = response in the unintended direction; inactive = score below 0.9.
# Target: Hepatocyte nuclear factor 4-alpha (Homo sapiens) (UniProt P41235)
# Experiment: ATG_HNF4a_TRANS: Attagene TRANS-FACTORIAL HepG2 Assay for human Hepatocyte Nuclear Factor 4 alpha (HNF4a) (AID 2282982)
# Details: HepG2 HNF4a transactivation reporter, mRNA readout
# Method in brief: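 Endpoint reflects transcriptional activation of a GAL4-UAS reporter by an HNF4a-GAL4 chimera in transfected HepG2 cells, 24 h post-dosing. Fluorescence from RT-PCR products separated by capillary electrophoresis; DMSO baseline.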
SMILES,AC50,outcome
CC(C)COC(=O)CC(C(=O)OCC(C)C)S(=O)(=O)O (centres undefined),inconclusive: 184 µM,–
O=C(O)C(F)(OC(F)(F)C(F)(OC(F)(F)C(F)(F)C(F)(F)F)C(F)(F)F)C(F)(F)F (centres undefined),inconclusive: 150 µM,–
O=C(/C=C/C=C/c1ccc2c(c1)OCO2)N1CCCCC1,inconclusive: 100 µM,–
Oc1ccc(Cc2ccccc2O)cc1,–,inactive
OC[C@H]1O[C@@H]2O[C@H]3[C@H](O)[C@@H](O)[C@@H](O[C@H]4[C@H](O)[C@@H](O)[C@@H](O[C@H]5[C@H](O)[C@@H](O)[C@@H](O[C@H]6[C@H](O)[C@@H](O)[C@@H](O[C@H]7[C@H](O)[C@@H](O)[C@@H](O[C@H]1[C@H](O)[C@H]2O)O[C@@H]7CO)O[C@@H]6CO)O[C@@H]5CO)O[C@@H]4CO)O[C@@H]3CO,inconclusive: 0.967 µM,–
CCCC[N+](C)(CCCC)CCCC,inconclusive: 98.5 µM,–
CC1COC(=O)O1 (centres undefined),inconclusive: 0.0476 µM,–
FC(F)(F)C(F)(F)C(F)(F)C(F)(F)C(F)(F)C(F)(F)I,inconclusive: 150 µM and inconclusive: 41.6 µM,–
O=C(Cl)c1ccc(Cl)cc1Cl,–,inactive
[Na+],inconclusive: 0.0132 µM,–
O=S(=O)(O)c1ccc(N=Nc2c(O)ccc3cc(S(=O)(=O)O)ccc23)cc1,–,inactive
OCCC(F)(F)C(F)(F)C(F)(F)C(F)(F)C(F)(F)C(F)(F)C(F)(F)C(F)(F)F,–,inactive
CC[Si](OC(C)=O)(OC(C)=O)OC(C)=O,–,inactive
CCc1cccc(O)c1,–,inactive
CC(C)C(=O)OCc1ccccc1,inconclusive: 100 µM,–
CN1CCC[C@H]1c1cccnc1,inconclusive: 0.0787 µM,inactive
CCCCCCCCCCCSCC(=O)O,inconclusive: 100 µM,–
CC(C)CCCCCOC(=O)CS,–,inactive
CCCc1ccc(N)cc1,inconclusive: 2.39 µM,–

# Exported with tabs: part of the list above
SMILES	AC50	outcome
CC[Si](OC(C)=O)(OC(C)=O)OC(C)=O	–	inactive
CCc1cccc(O)c1	–	inactive
CC(C)C(=O)OCc1ccccc1	inconclusive: 100 µM	–
CN1CCC[C@H]1c1cccnc1	inconclusive: 0.0787 µM	inactive
CCCCCCCCCCCSCC(=O)O	inconclusive: 100 µM	–
